Data as given in article PMC4524894.
No constants are given. Whether binding was seen depends on the method and setting. In cells and extracts the contact can be indirect. Some results given as binding are weak or reduced against the parent protein; the word gives no strength. Where a sequence is shown, tags or fusion partners need not be part of it.

Molecular target: T1, OsPP2C6 fused to the N-terminal fragment of YFP (pVYNE) (rice) (UniProt Q0JLP9)
T1 sequence: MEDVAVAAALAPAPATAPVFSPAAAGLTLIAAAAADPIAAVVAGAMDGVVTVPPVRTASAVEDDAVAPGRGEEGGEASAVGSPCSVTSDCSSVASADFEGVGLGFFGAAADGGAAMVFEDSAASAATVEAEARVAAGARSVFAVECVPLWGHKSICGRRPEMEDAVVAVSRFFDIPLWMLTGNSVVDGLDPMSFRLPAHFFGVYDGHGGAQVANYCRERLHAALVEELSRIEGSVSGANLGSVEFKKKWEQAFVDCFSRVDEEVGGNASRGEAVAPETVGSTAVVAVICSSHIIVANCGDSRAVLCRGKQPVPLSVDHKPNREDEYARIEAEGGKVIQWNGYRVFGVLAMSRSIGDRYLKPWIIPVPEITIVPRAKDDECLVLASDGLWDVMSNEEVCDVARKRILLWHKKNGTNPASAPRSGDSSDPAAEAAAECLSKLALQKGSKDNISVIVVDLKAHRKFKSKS
Assay: split reporter; BiFC in rice protoplasts; pVYCE and pVYNE plasmids (15 ug each) by PEG-mediated transfection; reconstituted YFP fluorescence observed by microscopy at 16-24 h incubation

binding: binds
B1: OsPYL/RCAR5 fused to the C-terminal fragment of YFP (pVYCE) (receptor, UniProt Q6I5C3 1-209)
chain: MVGLVGGGGWRVGDDAAGGGGGGAVAAGAAAAAEAEHMRRLHSHAPGEHQCSSALVKHIKAPVHLVWSLVRSFDQPQRYKPFVSRCVVRGGDLEIGSVREVNVKTGLPATTSTERLELLDDDEHILSVKFVGGDHRLRNYSSIVTVHPESIDGRPGTLVIESFVVDVPDGNTKDETCYFVEAVIKCNLTSLAEVSERLAVQSPTSPLEQ
